Source: PubChem BioAssay AID720505 (Drosophila RNAi Screening Center, 2013)

Aim: 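Knock-downs that reduce calcium influx once internal stores are emptied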 (primary screen)
System: Drosophila S2R+ cells
Reagent: long dsRNA against Drosophila genes
Conditions: thapsigargin (2 µM) in calcium-free buffer to empty internal stores, then 2 mM calcium added back
Measured: 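Stores emptied by 2 µM thapsigargin without calcium, then 2 mM calcium re-added; fluo-4 fluorescence followed by FLIPR in 384-well plates, per-well averaged endpoint, raw; two screen passes, some wells retested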
Scale: calcium signal: higher = more calcium entry after store depletion
Hit rule: 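About 1500 genes called as lowering calcium entry, by varying amounts, judged against per-plate control wells with STIM1 as positive and Rho1 as negative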
Calls: active = called as lowering calcium entry; inactive = not called
The deposit covers about 20,000 reagents; this is an unselected part of those with a known target gene and a result. Of all reagents, about 2,100 (10%) are marked active. 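Raw plate signals without normalisation; calls rest on control-based scores that were not deposited; replicate 2 separates called from uncalled poorly.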 Reagents against one gene are numbered here. A plus sign joins genes that one reagent is predicted to hit. Not stated in the record: the amount of reagent, the time to read-out.

disco-r #1: calcium signal, replicate 1 = 99; calcium signal, replicate 2 = 101; call = inactive
disco-r #2: calcium signal, replicate 1 = 79.9; calcium signal, replicate 2 = 121; call = inactive
Pgcl: calcium signal, replicate 1 = 68.3; calcium signal, replicate 2 = 110; call = inactive
CG4702: calcium signal, replicate 1 = 117; calcium signal, replicate 2 = 125; call = inactive
RpS18: calcium signal, replicate 1 = 69; calcium signal, replicate 2 = 101; call = active
bgm: calcium signal, replicate 1 = 96.7; calcium signal, replicate 2 = 107; call = inactive
Vha100-1: calcium signal, replicate 1 = 64.9; calcium signal, replicate 2 = 66.5; call = active
Acp63F: calcium signal, replicate 1 = 137; calcium signal, replicate 2 = 81.6; call = inactive
CG13870: calcium signal, replicate 1 = 140; calcium signal, replicate 2 = 72.4; call = inactive
CG10973: calcium signal, replicate 1 = 129; calcium signal, replicate 2 = 88; call = inactive
pnt #1: calcium signal, replicate 1 = 157; calcium signal, replicate 2 = 120; call = inactive
pnt #2: calcium signal, replicate 1 = 137; calcium signal, replicate 2 = 183; call = inactive
sicily: calcium signal, replicate 1 = 85.1; calcium signal, replicate 2 = 86.3; call = inactive
mus201 + Chrac-14 #1: calcium signal, replicate 1 = 172; calcium signal, replicate 2 = 122; call = inactive
mus201 + Chrac-14 #2: calcium signal, replicate 1 = 172; calcium signal, replicate 2 = 131; call = inactive
CG18130: calcium signal, replicate 1 = 118; calcium signal, replicate 2 = 78.7; call = inactive
Gpdh3: calcium signal, replicate 1 = 183; calcium signal, replicate 2 = 133; call = inactive
CAH5: calcium signal, replicate 1 = 220; calcium signal, replicate 2 = 134; call = inactive
Ork1: calcium signal, replicate 1 = 66.8; calcium signal, replicate 2 = 62.7; call = active
CR30409: calcium signal, replicate 1 = 75.8; calcium signal, replicate 2 = 172; call = inactive
CG12963 #1: calcium signal, replicate 1 = 112; calcium signal, replicate 2 = 137; call = inactive
CG12963 #2: calcium signal, replicate 1 = 113; calcium signal, replicate 2 = 170; call = inactive
CG18190: calcium signal, replicate 1 = 135; calcium signal, replicate 2 = 113; call = inactive
Dpy-30L2: calcium signal, replicate 1 = 114; calcium signal, replicate 2 = 84.9; call = inactive
CG6830: calcium signal, replicate 1 = 151; calcium signal, replicate 2 = 108; call = inactive
CG8172 #1: calcium signal, replicate 1 = 127; calcium signal, replicate 2 = 140; call = inactive
CG8172 #2: calcium signal, replicate 1 = 73.2; calcium signal, replicate 2 = 214; call = inactive
CG11710: calcium signal, replicate 1 = 154; calcium signal, replicate 2 = 92.8; call = inactive
lft: calcium signal, replicate 1 = 179; calcium signal, replicate 2 = 138; call = inactive
RpS6: calcium signal, replicate 1 = 115; calcium signal, replicate 2 = 96.6; call = inactive
CG7724: calcium signal, replicate 1 = 97.3; calcium signal, replicate 2 = 91.7; call = inactive
Crtp: calcium signal, replicate 1 = 109; calcium signal, replicate 2 = 189; call = inactive
CG5177: calcium signal, replicate 1 = 125; calcium signal, replicate 2 = 242; call = inactive
CG7707: calcium signal, replicate 1 = 83.4; calcium signal, replicate 2 = 138; call = inactive
Trax: calcium signal, replicate 1 = 113; calcium signal, replicate 2 = 86.6; call = inactive

Individual results from the list:
CG13870, calcium signal, replicate 2: 72.4
Value for CG8172 #2 in “call”: inactive
